Results on 1 sequence are retold here after paper PMC7545717.

Chains of the proteins cited; added tags and fusions are not shown. Chains listed by the source or under a name are the forms on record and can include a tag or linker.
LXRα (mouse hepatocyte nuclear extract) + PARP1 (mouse hepatocyte nuclear extract), one chain, as listed by the source, chain 2 of 2: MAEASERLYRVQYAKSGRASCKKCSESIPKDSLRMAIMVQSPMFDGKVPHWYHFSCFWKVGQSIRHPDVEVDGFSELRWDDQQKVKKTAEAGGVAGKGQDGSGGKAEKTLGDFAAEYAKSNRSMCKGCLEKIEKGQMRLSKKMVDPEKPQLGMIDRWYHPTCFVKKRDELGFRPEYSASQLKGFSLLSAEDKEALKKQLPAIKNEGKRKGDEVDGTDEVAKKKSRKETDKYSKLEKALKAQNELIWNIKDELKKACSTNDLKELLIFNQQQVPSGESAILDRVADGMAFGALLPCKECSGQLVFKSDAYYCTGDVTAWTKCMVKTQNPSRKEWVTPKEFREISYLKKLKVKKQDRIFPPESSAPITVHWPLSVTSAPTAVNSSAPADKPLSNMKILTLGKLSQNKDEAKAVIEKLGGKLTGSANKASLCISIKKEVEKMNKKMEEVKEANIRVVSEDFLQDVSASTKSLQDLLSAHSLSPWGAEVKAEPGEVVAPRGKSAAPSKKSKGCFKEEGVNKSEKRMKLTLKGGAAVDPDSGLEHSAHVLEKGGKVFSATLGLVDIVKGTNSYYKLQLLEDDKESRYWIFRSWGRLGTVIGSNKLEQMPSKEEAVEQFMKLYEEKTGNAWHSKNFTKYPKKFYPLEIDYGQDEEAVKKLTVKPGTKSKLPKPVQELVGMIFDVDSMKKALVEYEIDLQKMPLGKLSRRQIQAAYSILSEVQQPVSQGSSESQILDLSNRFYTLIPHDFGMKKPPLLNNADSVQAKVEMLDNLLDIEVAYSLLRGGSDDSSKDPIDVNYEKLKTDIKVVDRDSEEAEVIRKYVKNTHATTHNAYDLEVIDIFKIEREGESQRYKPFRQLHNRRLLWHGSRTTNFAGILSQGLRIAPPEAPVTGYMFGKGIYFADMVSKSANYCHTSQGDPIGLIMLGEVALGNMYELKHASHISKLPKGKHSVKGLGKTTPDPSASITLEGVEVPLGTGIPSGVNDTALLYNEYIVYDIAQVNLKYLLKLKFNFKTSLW
LXRα (mouse hepatocyte nuclear extract) + PARP1 (mouse hepatocyte nuclear extract), one chain, as listed by the source, chain 1 of 2: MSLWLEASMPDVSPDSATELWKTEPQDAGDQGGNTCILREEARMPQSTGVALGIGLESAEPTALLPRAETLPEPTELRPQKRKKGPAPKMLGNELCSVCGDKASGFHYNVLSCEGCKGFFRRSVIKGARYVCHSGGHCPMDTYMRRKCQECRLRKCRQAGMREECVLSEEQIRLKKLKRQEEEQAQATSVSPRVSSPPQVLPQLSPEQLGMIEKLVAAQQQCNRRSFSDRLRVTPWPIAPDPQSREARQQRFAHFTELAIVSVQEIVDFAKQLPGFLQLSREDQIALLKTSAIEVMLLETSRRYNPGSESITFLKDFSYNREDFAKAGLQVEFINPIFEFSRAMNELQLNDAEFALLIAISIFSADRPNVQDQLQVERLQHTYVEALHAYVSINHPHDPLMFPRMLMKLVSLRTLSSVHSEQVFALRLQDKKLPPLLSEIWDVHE

For data set [1], the system named is LXRα (mouse hepatocyte nuclear extract) + PARP1 (mouse hepatocyte nuclear extract). Kind of data set: EMSA supershift. The following applies: WT hepatocyte nuclear extract, anti-PARP1 shifts the LXRα-LXRE band; LightShift Chemiluminescent EMSA kit per manufacturer's protocol; protein in an extract; label: 5' biotin on each strand. Background: A gel shift assay detects complexes by their altered migration in electrophoresis.

Data set [2] has as its system LXRα (recombinant, Abnova) + PARP1 (recombinant, Trevigen). The data set can be described thus: EMSA. The following applies: LightShift Chemiluminescent EMSA kit per manufacturer's protocol, recombinant protein, label: 5' biotin on each strand.

Construct, isoform or probe ends are uncertain for at least one entry. For part of these data: The comparison behind a weaker result is the experiment's own reference, which may not be listed here. For part of these data: Results from cells or extracts need not show a direct contact. For part of these data: At least one verdict was read from the data and is not stated in words by the source.

Regarding “CAAGGATGTGTCCCTTCAACTCAATGTGGC (double strand) [LXRE consensus probe]”, the binding result in data set [1] is on record as “binds”; in data set [2] (PARP1 + NAD+ + active (nicked) DNA, LXRα poly(ADP-ribosyl)ated), “binds more weakly”; in data set [2] (unactivated PARP1, no NAD+/active DNA), “binds”.
